Columns and labels:
Details in all cases: ratio of HC50 over geometric mean MIC
[1] = system: Pseudomonas aeruginosa; format: cell-based
[2] = system: S. aureus; assay: MIC geometric mean, 20 isolates of S. aureus; format: cell-based, Staphylococcus aureus
[3] = system: Acinetobacter baumannii; format: cell-based

Row | SMILES | Eukaryotic/Prokaryotic Cell Selectivity Factor hRBC/P. aeruginosa [1] | Eukaryotic/Prokaryotic Cell Selectivity Factor hRBC/S. aureus [2] | Eukaryotic/Prokaryotic Cell Selectivity Factor hRBC/A. baumannii [3]
1 | CSCC[C@@H](NC(=O)[C@@H](Cc1c[nH]c2ccccc12)NC(=O)[C@@H](CC(C)C)NC(=O)[C@@H](C)N)C(=O)N[C@@H](C(=O)N[C@H](CC(C)C)C(=O)N[C@H](CC(C)C)C(=O)N[C@H](CCCCN)C(=O)N[C@H](CCCCN)C(=O)N[C@@H](C(=O)N[C@H](CC(C)C)C(=O)N[C@H](CCCCN)C(=O)N[C@H](C)C(=O)N[C@H](C)C(=O)N[C@H](C)C(=O)N[C@H](CCCCN)C(=O)N[C@H](C)C(=O)N[C@H](CC(C)C)C(=O)N[C@H](CC(N)=O)C(=O)N[C@H](C)C(=O)N[C@@H](C(=O)N[C@H](CC(C)C)C(=O)N[C@@H](C(=O)NCC(=O)N[C@H](C)C(=O)N[C@H](CC(N)=O)C(=O)N[C@H](C)C(N)=O)C(C)C)C(C)C)C(C)C)[C@H](C)O [D-Dermaseptin S4, reference compound] | 0.05 | 0.1 | 0.3
2 | CC[C@@H](C)[C@@H](NC(=O)[C@@H](Cc1c[nH]cn1)NC(=O)[C@@H](Cc1c[nH]cn1)NC(=O)[C@@H](Cc1ccccc1)NC(=O)[C@H](N)Cc1ccccc1)C(=O)N[C@H](Cc1ccccc1)C(=O)N[C@H](CCCNC(=N)N)C(=O)NCC(=O)N[C@H](CCCCN)C(=O)N[C@@H](C(=O)N[C@H](Cc1c[nH]cn1)C(=O)N[C@@H](C(=O)NCC(=O)N[C@H](CCCCN)C(=O)N[C@@H](C(=O)N[C@@H](C(=O)N[C@H](Cc1c[nH]cn1)C(=O)N[C@H](CCCNC(=N)N)C(=O)N[C@H](CC(C)C)C(=O)N[C@@H](C(=O)N[C@@H](C(=O)NCC(N)=O)[C@H](C)O)C(C)C)[C@H](C)CC)[C@H](C)O)C(C)C)C(C)C [D-Piscidin 1 I9K] | 32 | 0.5 | 32.6
3 | CC[C@@H](C)[C@@H](NC(=O)CNC(=O)[C@@H](CCCNC(=N)N)NC(=O)[C@@H](Cc1ccccc1)NC(=O)[C@H](NC(=O)[C@@H](Cc1c[nH]cn1)NC(=O)[C@@H](Cc1c[nH]cn1)NC(=O)[C@@H](Cc1ccccc1)NC(=O)[C@H](N)Cc1ccccc1)[C@H](C)CC)C(=O)N[C@@H](C(=O)N[C@H](Cc1c[nH]cn1)C(=O)N[C@H](CCCCN)C(=O)NCC(=O)N[C@H](CCCCN)C(=O)N[C@@H](C(=O)N[C@@H](C(=O)N[C@H](Cc1c[nH]cn1)C(=O)N[C@H](CCCNC(=N)N)C(=O)N[C@H](CC(C)C)C(=O)N[C@@H](C(=O)N[C@@H](C(=O)NCC(N)=O)[C@H](C)O)C(C)C)[C@H](C)CC)[C@H](C)O)C(C)C [D-Piscidin 1 V12K] | 2.1 | 0.2 | 12.5
4 | CC[C@@H](C)[C@@H](NC(=O)CNC(=O)[C@@H](CCCNC(=N)N)NC(=O)[C@@H](Cc1ccccc1)NC(=O)[C@H](NC(=O)[C@@H](Cc1c[nH]cn1)NC(=O)[C@@H](Cc1c[nH]cn1)NC(=O)[C@@H](Cc1ccccc1)NC(=O)[C@H](N)Cc1ccccc1)[C@H](C)CC)C(=O)N[C@@H](C(=O)N[C@H](Cc1c[nH]cn1)C(=O)N[C@@H](C(=O)NCC(=O)N[C@H](CCCCN)C(=O)N[C@@H](C(=O)N[C@@H](C(=O)N[C@H](Cc1c[nH]cn1)C(=O)N[C@H](CCCNC(=N)N)C(=O)N[C@H](CC(C)C)C(=O)N[C@@H](C(=O)N[C@@H](C(=O)NCC(N)=O)[C@H](C)O)C(C)C)[C@H](C)CC)[C@H](C)O)C(C)C)C(C)C [D-Piscidin 1, reference compound] | 0.09 | 0.6 | 0.6
